This note sets out measurements from the supplement of paper PMC3334620.

The full ranking holds about 33,000 sequences; the median of “E-score (-0.5 to 0.5)” is about -8e-05, and the highest 2% start at about 0.23. The list shows a part of the results.

For the assay, the target named is T1, Nrg2 (UniProt P38082).
T1 sequence: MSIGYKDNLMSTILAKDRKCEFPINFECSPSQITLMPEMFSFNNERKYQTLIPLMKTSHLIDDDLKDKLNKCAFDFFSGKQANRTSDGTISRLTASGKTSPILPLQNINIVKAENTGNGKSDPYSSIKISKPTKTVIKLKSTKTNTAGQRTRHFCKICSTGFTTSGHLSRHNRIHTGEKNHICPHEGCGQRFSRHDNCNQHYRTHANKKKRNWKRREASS
Put plainly: PBM E-score (8-mer binding enrichment) (E-score (-0.5 to 0.5)); higher = stronger / more preferred TF binding. The conditions noted are these: protein concentration: 100 nM; construct: GST-full length. The essentials: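 Universal all-10-mer Agilent arrays, double-stranded by primer extension on fresh or once-stripped slides, were probed with about 100-200 nM GST-tagged yeast transcription factors made by PURExpress. Fluorescent anti-GST detected bound protein, and masliner normalised the scans. E-scores from the Universal PBM Analysis Suite were given to each ungapped eight-base word pooled with its reverse complement.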
In the case of AATTGCGG, the “PBM E-score” value is -0.0123.
On to ACTGGGGG, for which the “PBM E-score” value is -0.421.
The value for CGATAGGC was -0.0639; that for CTTCATCA was 0.174; that for GCTGACGA was 0.0808.
The value for CCCGGAGA was -0.138.
The result for CGTGAAAA reads 0.0397; that for GTGCTGCA, -0.0396.
As to GGAGGAAA, the “PBM E-score” value was -0.0999.
GCGTGCGA: the “PBM E-score” value is -0.103.
The value for ATCAGGGC was 0.127; that for GATAACAC was 0.0127; that for CAAGAATG was -0.0199.
The result for ACATACAC reads 0.0363; that for AGGTATCC, 0.0496; that for ATGGTGAC, -0.134.
The value for AGGGACTA was 0.242.
For the sequence AATTCCCG, the “PBM E-score” value is -0.0292.
The value for AATGATGG was 0.157; that for CAGAACTC was 0.0408; that for TCGATTCA was 0.152.
The value for CCTCATCA was 0.063.
As for ATCTCTCG, the “PBM E-score” value is 0.0246.
In the case of GTTACAGA, the “PBM E-score” value is -0.14.
Consider ATACGAAT, for which the “PBM E-score” value amounted to 0.00342.
The result for CCCACGCC reads -0.228.
On to ACCGTTAC, for which the “PBM E-score” value was -0.118.
CACTCTAA: the “PBM E-score” value was 0.0593.
Turning to GACGCCTC, the “PBM E-score” value was -0.0713.
As to GGGAATTA, the “PBM E-score” value is 0.0505.
The result for CATTATAG reads -0.0331; that for GCAGTTAC, 0.063; that for CGAATGAC, 0.175.
Regarding GTAAAGAA, the “PBM E-score” value came to 0.045.
The result for CATTTAAG reads 0.0535.
The value for AAGAAGGC was -0.197.
Consider CGTAGCTC, for which the “PBM E-score” value was 0.0178.
In the case of CACCCATG, the “PBM E-score” value amounted to 0.0717.
On to ATTCGCAA, for which the “PBM E-score” value was 0.174.
Regarding AAAGGCAA, the “PBM E-score” value came out at 0.046.
As to CACTACTA, the “PBM E-score” value came to 0.0799.
GGGGTCTA: the “PBM E-score” value worked out at 0.203.
Regarding GTATCCCA, the “PBM E-score” value was -0.0421.
As to AAGTTTAT, the “PBM E-score” value was 0.173.
Turning to AGGTGCAC, the “PBM E-score” value was determined as 0.162.
The result for GCATAGCA reads -0.0131.
For the sequence GACCTTGC, the “PBM E-score” value is -0.128.
Take AGATCATA: the “PBM E-score” value was determined as 0.199.
Turning to CCGCAAGA, the “PBM E-score” value came out at 0.0368.
Regarding ACAGAAAA, the “PBM E-score” value was 0.133.
The value for AAACTCCT was -0.208; that for AATATAGA was 0.0664; that for AGTGCGTG was 0.0141.
The result for GCATCGCC reads -0.143.
For the sequence ATGAGACA, the “PBM E-score” value turned out to be 0.0867.
Regarding GACCGAAC, the “PBM E-score” value was -0.0344.
The value for GGCAAAGA was 0.0887; that for AATGGTTC was -0.0121.
With GAGTGGCC, the “PBM E-score” value is -0.014.
The result for ACACGTCG reads -0.16; that for CAAAGCTG, 0.136; that for AACCGAGT, -0.207.
Take AAGGTTAT: the “PBM E-score” value is -0.072.
The value for AACTGTTA was 0.195; that for CCTGCGTA was -0.135.
As for AGTAGTAC, the “PBM E-score” value amounted to 0.156.
As to CAATAAGC, the “PBM E-score” value is -0.032.
With GGCATACC, the “PBM E-score” value was -0.0498.
The value for ATATGAGC was 0.141; that for TCATGGCA was -0.0202; that for CGTCGAGC was -0.0344.
For TAACCCAA, the “PBM E-score” value is -0.00379.
AGTAAGGA: the “PBM E-score” value was -0.00565.
For CCCAATTC, the “PBM E-score” value was 0.176.
The value for CAATCGCG was 0.108.
Take ACGCGACC: the “PBM E-score” value is -0.0575.
Turning to GGCAGGGA, the “PBM E-score” value stood at 0.0907.
The result for CATTTGGC reads -0.0102.
ACGCCTGA: the “PBM E-score” value came to 0.0835.
Regarding GTGACTTA, the “PBM E-score” value amounted to 0.00059.
The result for AAGGTAAG reads -0.0254; that for TATGCGCA, 0.214; that for ATGACTTC, 0.0987.
GACGGCAA: the “PBM E-score” value came out at 0.014.
The value for ACTTTCCT was -0.00666; that for CGCAAGCC was 0.114.
Consider CCGAATTC, for which the “PBM E-score” value stood at 0.109.
For the sequence GACATGAC, the “PBM E-score” value is -0.0496.
The result for GGTAATTA reads 0.113; that for CGACGGCA, -0.0275.
For ATCACGGG, the “PBM E-score” value was -0.0119.
As to AAGCTCTA, the “PBM E-score” value was -0.0141.
The result for CGCTGGAA reads -0.158; that for GGAAGTAA, 0.00119.
